According to the supplement of paper PMC11732987, “Enantioselective OTUD7B fragment discovery through chemoproteomics screening and high-throughput optimisation” (Communications Chemistry, 2025):
The list shows a part of the results. The data scatter; read single values as rough.

Amino acid sequences for entries named in this document (tags omitted). A change or cut given only in a name is not applied to a line headed by its entry. Residues count along the entry.
UniProt Q8IU81: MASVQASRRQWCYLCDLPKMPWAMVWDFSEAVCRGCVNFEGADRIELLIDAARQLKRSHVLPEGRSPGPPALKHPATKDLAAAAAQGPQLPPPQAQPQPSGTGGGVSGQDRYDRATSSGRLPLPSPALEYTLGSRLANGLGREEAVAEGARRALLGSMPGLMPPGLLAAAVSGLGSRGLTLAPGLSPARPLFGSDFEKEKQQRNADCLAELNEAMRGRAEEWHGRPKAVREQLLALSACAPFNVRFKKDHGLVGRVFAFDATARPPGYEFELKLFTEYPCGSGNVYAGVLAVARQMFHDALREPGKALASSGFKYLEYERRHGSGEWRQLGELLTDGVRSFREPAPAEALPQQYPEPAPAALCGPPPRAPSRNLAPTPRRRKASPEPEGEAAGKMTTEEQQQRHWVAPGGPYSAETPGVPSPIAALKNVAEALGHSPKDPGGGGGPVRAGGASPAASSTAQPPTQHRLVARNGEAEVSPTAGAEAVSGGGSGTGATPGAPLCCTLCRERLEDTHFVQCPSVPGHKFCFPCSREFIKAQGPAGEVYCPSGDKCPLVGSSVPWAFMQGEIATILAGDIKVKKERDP
UniProt Q8TEX9: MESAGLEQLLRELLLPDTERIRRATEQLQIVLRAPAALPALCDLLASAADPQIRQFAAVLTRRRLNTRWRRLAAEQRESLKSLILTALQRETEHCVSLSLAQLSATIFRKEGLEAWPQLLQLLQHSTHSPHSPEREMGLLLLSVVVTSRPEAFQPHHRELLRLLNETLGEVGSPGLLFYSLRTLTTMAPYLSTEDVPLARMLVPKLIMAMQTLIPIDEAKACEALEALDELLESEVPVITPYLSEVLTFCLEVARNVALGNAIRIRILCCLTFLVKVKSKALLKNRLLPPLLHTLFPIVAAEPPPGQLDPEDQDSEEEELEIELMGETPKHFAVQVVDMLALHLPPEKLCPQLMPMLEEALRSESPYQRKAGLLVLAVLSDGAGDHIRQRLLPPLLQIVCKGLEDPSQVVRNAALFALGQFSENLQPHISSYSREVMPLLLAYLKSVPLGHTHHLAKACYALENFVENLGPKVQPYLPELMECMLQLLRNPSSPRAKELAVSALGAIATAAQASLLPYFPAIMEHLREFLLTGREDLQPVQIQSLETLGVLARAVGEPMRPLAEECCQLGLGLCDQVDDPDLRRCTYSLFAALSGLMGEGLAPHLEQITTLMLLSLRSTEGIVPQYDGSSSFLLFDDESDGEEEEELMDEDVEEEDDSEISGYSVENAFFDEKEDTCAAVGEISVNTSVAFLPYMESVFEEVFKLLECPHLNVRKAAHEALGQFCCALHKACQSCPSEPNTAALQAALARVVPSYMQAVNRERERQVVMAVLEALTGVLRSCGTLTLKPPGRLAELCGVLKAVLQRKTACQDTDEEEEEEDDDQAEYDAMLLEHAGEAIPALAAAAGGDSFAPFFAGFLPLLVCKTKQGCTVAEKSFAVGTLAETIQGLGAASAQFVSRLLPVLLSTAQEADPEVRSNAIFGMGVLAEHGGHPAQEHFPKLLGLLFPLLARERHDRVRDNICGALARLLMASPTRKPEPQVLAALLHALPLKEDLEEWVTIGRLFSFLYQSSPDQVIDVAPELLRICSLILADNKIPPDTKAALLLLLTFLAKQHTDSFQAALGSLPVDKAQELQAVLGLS
UniProt P42858, whole entry, looked up: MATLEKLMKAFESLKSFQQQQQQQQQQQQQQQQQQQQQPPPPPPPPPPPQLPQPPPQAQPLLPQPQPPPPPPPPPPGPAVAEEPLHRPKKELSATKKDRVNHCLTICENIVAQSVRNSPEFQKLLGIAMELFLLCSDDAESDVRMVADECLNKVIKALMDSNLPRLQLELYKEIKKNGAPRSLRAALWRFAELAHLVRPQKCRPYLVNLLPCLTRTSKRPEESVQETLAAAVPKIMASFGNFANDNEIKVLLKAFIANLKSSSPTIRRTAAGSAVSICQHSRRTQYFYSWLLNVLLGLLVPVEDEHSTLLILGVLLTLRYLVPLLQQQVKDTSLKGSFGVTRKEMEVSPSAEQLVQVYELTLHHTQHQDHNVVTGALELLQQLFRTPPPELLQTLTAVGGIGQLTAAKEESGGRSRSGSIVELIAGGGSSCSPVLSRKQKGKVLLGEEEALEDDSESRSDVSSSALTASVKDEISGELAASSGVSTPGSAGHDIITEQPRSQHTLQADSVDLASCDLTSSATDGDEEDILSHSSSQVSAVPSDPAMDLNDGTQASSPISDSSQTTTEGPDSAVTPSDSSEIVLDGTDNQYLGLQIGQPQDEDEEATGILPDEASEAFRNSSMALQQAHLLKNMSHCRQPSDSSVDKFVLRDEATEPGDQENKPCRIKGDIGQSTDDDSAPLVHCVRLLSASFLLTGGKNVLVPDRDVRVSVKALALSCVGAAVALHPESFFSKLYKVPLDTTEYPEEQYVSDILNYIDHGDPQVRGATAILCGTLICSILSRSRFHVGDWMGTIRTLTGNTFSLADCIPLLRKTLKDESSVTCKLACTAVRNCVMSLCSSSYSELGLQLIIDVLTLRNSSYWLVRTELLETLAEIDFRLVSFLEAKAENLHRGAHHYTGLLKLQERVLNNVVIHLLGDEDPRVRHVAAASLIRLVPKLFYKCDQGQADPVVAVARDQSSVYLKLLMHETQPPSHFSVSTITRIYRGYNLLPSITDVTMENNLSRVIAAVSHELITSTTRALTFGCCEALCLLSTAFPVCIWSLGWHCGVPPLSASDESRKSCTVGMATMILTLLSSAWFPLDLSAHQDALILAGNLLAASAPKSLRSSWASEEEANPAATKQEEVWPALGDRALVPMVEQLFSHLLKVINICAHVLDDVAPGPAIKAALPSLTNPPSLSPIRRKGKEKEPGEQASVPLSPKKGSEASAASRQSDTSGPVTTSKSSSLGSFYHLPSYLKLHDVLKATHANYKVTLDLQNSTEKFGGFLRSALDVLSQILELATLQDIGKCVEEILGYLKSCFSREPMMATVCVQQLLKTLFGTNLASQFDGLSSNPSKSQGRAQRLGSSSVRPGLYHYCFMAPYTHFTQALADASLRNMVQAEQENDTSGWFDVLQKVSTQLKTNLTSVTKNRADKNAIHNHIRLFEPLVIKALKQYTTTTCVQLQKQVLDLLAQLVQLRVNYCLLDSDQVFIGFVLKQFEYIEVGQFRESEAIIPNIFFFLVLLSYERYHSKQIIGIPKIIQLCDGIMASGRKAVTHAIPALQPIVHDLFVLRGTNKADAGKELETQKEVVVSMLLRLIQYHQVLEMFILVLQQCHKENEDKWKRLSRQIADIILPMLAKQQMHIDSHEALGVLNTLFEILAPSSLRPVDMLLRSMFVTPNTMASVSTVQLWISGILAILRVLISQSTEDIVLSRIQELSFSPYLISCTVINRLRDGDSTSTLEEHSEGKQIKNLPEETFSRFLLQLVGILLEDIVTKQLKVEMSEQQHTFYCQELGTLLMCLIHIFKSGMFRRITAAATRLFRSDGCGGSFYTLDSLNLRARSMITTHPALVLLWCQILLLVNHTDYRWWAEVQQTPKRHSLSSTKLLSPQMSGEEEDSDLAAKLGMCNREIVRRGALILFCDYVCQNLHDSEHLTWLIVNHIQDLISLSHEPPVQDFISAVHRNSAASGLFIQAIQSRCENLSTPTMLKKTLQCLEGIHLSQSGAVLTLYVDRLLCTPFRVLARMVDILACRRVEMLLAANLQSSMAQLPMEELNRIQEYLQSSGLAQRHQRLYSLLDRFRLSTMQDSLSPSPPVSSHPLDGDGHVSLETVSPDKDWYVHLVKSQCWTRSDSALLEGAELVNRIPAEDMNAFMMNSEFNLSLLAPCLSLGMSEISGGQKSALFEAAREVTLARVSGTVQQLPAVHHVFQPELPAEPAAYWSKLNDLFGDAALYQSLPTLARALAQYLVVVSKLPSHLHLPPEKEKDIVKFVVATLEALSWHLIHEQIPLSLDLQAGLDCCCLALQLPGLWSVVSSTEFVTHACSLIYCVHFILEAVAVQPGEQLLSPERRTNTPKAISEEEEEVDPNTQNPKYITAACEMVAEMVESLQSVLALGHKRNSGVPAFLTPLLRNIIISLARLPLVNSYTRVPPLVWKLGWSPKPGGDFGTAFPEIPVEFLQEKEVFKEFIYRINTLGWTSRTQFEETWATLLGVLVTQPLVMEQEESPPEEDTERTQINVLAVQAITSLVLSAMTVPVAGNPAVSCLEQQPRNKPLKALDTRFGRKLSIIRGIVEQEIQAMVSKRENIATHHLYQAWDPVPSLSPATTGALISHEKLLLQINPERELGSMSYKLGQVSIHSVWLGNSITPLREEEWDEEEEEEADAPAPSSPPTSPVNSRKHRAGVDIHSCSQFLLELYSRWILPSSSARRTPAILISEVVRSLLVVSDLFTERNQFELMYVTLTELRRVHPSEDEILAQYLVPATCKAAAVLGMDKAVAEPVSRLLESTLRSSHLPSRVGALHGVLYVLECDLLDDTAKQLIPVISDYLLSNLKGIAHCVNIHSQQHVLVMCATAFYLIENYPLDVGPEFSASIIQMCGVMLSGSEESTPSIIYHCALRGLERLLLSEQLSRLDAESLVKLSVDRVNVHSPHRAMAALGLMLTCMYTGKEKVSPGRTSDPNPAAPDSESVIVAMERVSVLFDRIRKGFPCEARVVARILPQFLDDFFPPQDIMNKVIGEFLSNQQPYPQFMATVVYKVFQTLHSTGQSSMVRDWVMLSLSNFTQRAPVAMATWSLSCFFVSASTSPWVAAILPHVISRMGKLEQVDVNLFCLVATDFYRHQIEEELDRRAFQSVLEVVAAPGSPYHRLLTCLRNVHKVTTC
UniProt Q9UG01, whole entry, looked up: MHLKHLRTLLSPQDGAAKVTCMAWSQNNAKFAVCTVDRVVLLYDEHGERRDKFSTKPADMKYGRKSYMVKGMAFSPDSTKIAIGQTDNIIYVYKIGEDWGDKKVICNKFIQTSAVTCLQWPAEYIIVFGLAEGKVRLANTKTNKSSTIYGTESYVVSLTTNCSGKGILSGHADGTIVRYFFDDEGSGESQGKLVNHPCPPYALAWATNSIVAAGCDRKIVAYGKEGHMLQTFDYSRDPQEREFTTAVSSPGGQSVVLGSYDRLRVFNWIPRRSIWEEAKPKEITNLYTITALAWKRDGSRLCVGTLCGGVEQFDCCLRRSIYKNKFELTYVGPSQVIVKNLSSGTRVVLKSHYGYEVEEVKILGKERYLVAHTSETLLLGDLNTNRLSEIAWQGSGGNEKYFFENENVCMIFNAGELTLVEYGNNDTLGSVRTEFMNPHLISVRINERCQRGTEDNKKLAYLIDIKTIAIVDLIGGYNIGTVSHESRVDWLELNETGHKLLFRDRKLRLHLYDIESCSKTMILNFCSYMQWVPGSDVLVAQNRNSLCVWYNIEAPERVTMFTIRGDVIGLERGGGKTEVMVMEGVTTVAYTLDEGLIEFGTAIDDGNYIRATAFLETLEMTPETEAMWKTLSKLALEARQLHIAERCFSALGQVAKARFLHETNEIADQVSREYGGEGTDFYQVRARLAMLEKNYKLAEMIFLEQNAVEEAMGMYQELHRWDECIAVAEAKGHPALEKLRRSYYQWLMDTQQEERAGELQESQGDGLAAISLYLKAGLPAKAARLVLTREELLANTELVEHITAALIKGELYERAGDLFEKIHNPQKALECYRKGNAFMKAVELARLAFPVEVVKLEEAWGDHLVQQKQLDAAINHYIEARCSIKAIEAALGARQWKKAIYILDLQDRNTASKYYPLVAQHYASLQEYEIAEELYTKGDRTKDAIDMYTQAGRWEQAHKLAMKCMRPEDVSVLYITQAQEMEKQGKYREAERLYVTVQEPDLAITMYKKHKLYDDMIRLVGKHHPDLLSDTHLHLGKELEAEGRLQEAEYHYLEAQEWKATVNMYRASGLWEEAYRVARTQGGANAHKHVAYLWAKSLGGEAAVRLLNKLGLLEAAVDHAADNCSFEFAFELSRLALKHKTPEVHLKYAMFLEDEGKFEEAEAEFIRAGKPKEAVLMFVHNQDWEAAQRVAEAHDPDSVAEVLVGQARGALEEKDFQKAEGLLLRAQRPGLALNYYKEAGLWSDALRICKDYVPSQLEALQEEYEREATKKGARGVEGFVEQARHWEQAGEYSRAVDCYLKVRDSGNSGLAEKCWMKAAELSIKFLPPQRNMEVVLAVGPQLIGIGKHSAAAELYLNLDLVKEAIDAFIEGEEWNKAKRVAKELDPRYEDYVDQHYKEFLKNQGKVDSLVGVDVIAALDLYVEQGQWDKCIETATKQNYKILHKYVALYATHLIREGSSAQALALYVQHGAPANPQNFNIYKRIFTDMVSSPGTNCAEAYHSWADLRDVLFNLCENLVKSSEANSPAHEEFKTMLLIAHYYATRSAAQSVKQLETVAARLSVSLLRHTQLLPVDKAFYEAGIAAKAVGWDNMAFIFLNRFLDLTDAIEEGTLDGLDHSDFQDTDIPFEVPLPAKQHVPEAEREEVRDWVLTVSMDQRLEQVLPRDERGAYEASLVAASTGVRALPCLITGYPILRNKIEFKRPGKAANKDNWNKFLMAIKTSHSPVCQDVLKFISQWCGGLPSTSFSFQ
UniProt Q9H0C8, 119-144: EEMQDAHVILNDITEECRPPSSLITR

Experiments:
[1] = compound: ClCC(=O)N[C@@H]1CCCc2ccccc12; assay: log2 mean competition ratio of IA-DTB cysteine labelling (DMSO/compound) (log2 ratio); higher = stronger cysteine engagement by compound; details: treatment time: 4 h, cell line lysate: HEK293T
Description: (§1)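 IA-DTB competitive cysteine chemoproteomics in HEK293T RIPA lysate. Lysates were treated with compound 29 or 30 at 50 or 200 µM for 4 h, then IA-DTB (500 µM, 1 h), trypsin-digested, NeutrAvidin-enriched and analysed by diaPASEF. Competition ratio = intensity DMSO / intensity compound (n=4 treated, n=64 DMSO); binding: mean log2 CR ≥ 1 and p ≤ 0.05 plus QC filters. Target is the cysteine site.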

[2] = compound: ClCC(=O)N[C@H]1CCCc2ccccc12; assay: as above; details: treatment time: 4 h, cell line lysate: HEK293T
Description: as §1

Target | log2 mean competition ratio ([1]; 50 µM) | log2 mean competition ratio ([1]; 200 µM) | log2 mean competition ratio ([2]; 50 µM) | log2 mean competition ratio ([2]; 200 µM)
IDH3G C148 (UniProt P51553) | 0.181 | 0.292 | -0.461 | 0.0709
ICE1 C531 (UniProt Q9Y2F5) | 0.0301 | 0.119 | -0.116 | -0.0154
IGF2R C1270 (UniProt P11717) | -0.205 | 0.0344 | -0.416 | -0.119
IQGAP2 C276 (UniProt Q13576) | -0.0933 | -0.0505 | -0.277 | -0.287
IFT81 C648 (UniProt Q8WYA0) | -0.422 | – | 0.00893 | 0.236
HSD17B11 C94 (UniProt Q8NBQ5) | 0.0831 | 0.406 | -0.0224 | 0.159
IRF2BP1 C518 (UniProt Q8IU81) | 0.204 | -0.174 | -0.151 | -0.319
IPO4 C459 (UniProt Q8TEX9) | -0.0299 | 0.17 | -0.164 | 0.281
HTT C2013 (UniProt P42858) | 0.0879 | 0.164 | 0.105 | 0.102
IFT172 C1430 (UniProt Q9UG01) | 0.0674 | -0.0172 | 0.189 | 0.102
HSPA4 C270 (UniProt P34932) | -0.129 | 0.369 | -0.0514 | 0.358
ILKAP C135 (UniProt Q9H0C8) | -0.153 | 0.0966 | -0.143 | -0.364
HUWE1 C471 | 0.174 | 0.248 | 0.321 | 0.351
IGF2R C2096 (UniProt P11717) | 0.0288 | 0.328 | -0.463 | 0.631

For reference, part of the list above.
Target | log2 mean competition ratio ([1]; 50 µM) | log2 mean competition ratio ([1]; 200 µM) | log2 mean competition ratio ([2]; 50 µM) | log2 mean competition ratio ([2]; 200 µM)
IDH3G C148 (UniProt P51553) | 0.181 | 0.292 | -0.461 | 0.0709
ICE1 C531 (UniProt Q9Y2F5) | 0.0301 | 0.119 | -0.116 | -0.0154
